Measurements reported in PubChem BioAssay AID743454 (Peter MacCallum Cancer Centre, 2014).

- Screen: 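Knock-downs lowering viability or raising caspase 3/7 activity in vorinostat-treated resistant cells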 (primary screen)
- Cells: human HCT116-VR colon cancer cells, selected for vorinostat resistance
- Knock-down reagent: siRNA pool against human genes, 40 nM siRNA pool
- Time to read-out: vorinostat for 24 h, read-out about 72 h after transfection
- Conditions: vorinostat at 2.5 µM final
- Read-out: 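Two measures, CellTiter-Fluor viability and luminescent caspase 3/7 activity, each as fold change against same-plate mock wells, mean of duplicates, then screen-wide robust z-score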
- Scale: viability robust z-score: higher = more viable cells than screen typical; caspase robust z-score: higher = more caspase 3/7 activity than screen typical
- Rule for the call: 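Hits are knock-downs in viability class RV1/RV2 or caspase class CA1/CA2, excluding ones that killed cells in the no-drug cell-count arm; hits then retested with single siRNAs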
This is one part, drawn at random, of about 18,000 reagents tested. In the full data, 450 (2.5%) were called active. 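Single biological run; no consistent viability z cut-off exists, so the class columns, not z-scores, define the calls.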 A number with no mark means an inactive call.

no.	target	PubChem SID	viability hit class	caspase hit class	viability robust z-score	caspase robust z-score
1	ZNF318	SID152156400	no change	no change	0.84	1.06
2	SLC30A2	SID135621399	no change	no change	-0.2	0.68
3	SMIM29	SID152150319	no change	no change	0.4	-0.4
4	PSMA8	SID135623000	no change	no change	-0.39	-0.66
5	RYBP	SID152148425	no change	no change	0.68	0.3
6	CGA	SID152151331	no change	no change	-0.35	2.05
7	CREB1	SID134309968	no change	no change	-1.15	1.34
8	EBAG9	SID134325069	no change	no change	0.82	-0.04
9	SMARCA2	SID134321200	no change	no change	0.45	4.22
10	TPM4	SID134323520	no change	no change	0.54	0.52
11	ACTRT3	SID135622941	no change	no change	-0.32	-0.26
12	NUP160	SID152150399	no change	no change	-0.45	4.45
13	LAMP2	SID134316036	no change	no change	-0.71	-0.88
14	SLC11A2	SID134312429	no change	no change	0.62	1.84
15	GLRA3	SID152155340	no change	no change	-0.06	-0.2
16	REG3G	SID152156590	no change	no change	0.07	0.46
17	EXOSC6	SID135622437	no change	no change	-1.67	3.22
18	IFNGR2	SID134316973	no change	no change	0.56	0.74
19	TBC1D21	SID134320727	no change	no change	0.98	-0.8
20	DDX42	SID134316668	no change	no change	-4.11	1.34
21	JPT1	SID135624111	no change	no change	-0.93	-0.99
22	MOB3B	SID134322041	no change	no change	0.19	-0.69
23	SUPT5H	SID152154878	no change	no change	-1.48	1.48
24	TFAM	SID134323503	no change	no change	0.68	0.42
25	SMC4	SID152154922	no change	no change	-0.45	0.36
26	TEX101	SID134320166	no change	no change	1.18	0.05
27	MED31	SID152146932	no change	no change	-0.58	-0.14
28	VIT	SID135623008	no change	no change	1.18	0.39
29	TSPAN4	SID152153425	no change	no change	-0.97	2.8
30	TECPR2	SID152151889	no change	no change	-0.73	3.48
31	PILRB	SID134322842	no change	no change	-0.3	0.19
32	TRPM7	SID152149681	no change	no change	-1.94	-1.27
33	CA14	SID134314610	no change	no change	-0.99	-0.92
34	CCDC116	SID134322183	no change	no change	-0.83	0.22
35	ZNF256	SID134324935	no change	no change	0.27	-0.88
36	BIRC3	SID134310271	no change	no change	0.36	-0.78
37	ATAD5	SID152154476	no change	no change	0.03	-0.19
38	DPY19L2	SID152153558	no change	no change	0.22	-0.93
39	LY6D	SID135622349	no change	no change	0.02	0.2
40	NPY4R	SID152154887	no change	no change	-1.88	4.97
41	PPY	SID152151330	no change	no change	-0.04	1.34
42	FAM170A	SID152151431	no change	no change	-0.88	2.97
43	KTN1	SID152156705	no change	no change	-4.97	2.04
44	ZFYVE27	SID152148309	no change	no change	-1.29	-0.39
45	CPT2	SID135621597	no change	no change	-1.04	1.38
46	NHP2	SID135622503	no change	no change	1.12	0.64
47	ARMC1	SID134319829	no change	no change	1.77	-0.23
48	ADCK5	SID56479281	no change	no change	0.36	0.4
49	MINK1	SID152155809	no change	no change	-1.06	-0.29
50	TCF20	SID152154207	no change	no change	0.01	-0.2
51	DACT3	SID135622992	no change	no change	-0.55	-0.17
52	APOB	SID152148837	no change	no change	1.29	1.38
53	ZNF699	SID152155223	no change	no change	-1.7	4.14
54	RHOXF1	SID134320970	no change	no change	0.18	-0.08
55	SLC60A1	SID152152184	no change (active)	CA1 (caspase activation)	1.38	6.13
56	TCEAL8	SID152154131	no change	no change	0.35	0.14
57	ZFP41	SID152156606	no change	no change	0.21	0.55
58	CRELD2	SID134315272	no change	no change	0.45	-0.84
59	GON4L	SID152149359	no change	no change	-1.27	-1.15
60	SPARCL1	SID152150171	no change	no change	0.3	-0.29
61	RNASEH2B	SID134318528	no change	no change	-0.24	-1.25
62	SLC13A5	SID134312443	no change	no change	-0.79	2.82
63	CLCN2	SID152147109	no change	no change	0.4	0.44
64	TNFAIP3	SID134314611	no change	no change	-0.69	-0.2
65	SPOUT1	SID134315287	no change	no change	2.25	-0.56
66	ADAMTS9	SID152155261	no change	no change	0.94	-0.6
67	TUBB4B	SID152154621	no change	no change	-0.19	2.1
68	CCDC80	SID134322131	no change	no change	0.24	2.12
69	UGGT2	SID134318013	no change	no change	1.23	-0.18
70	CCPG1	SID152147673	no change	no change	-0.62	0.55
71	AUTS2	SID134318128	no change	no change	0.23	-0.66
72	CHRNB3	SID152155457	no change	no change	0.82	-0.16
73	KLF14	SID152152592	no change	no change	-0.18	-0.92

Records above whose target name begins with S or s:
target	PubChem SID	viability hit class	caspase hit class	viability robust z-score	caspase robust z-score
SLC30A2	SID135621399	no change	no change	-0.2	0.68
SMIM29	SID152150319	no change	no change	0.4	-0.4
SMARCA2	SID134321200	no change	no change	0.45	4.22
SLC11A2	SID134312429	no change	no change	0.62	1.84
SUPT5H	SID152154878	no change	no change	-1.48	1.48
SMC4	SID152154922	no change	no change	-0.45	0.36
SLC60A1	SID152152184	no change (active)	CA1 (caspase activation)	1.38	6.13
SPARCL1	SID152150171	no change	no change	0.3	-0.29
SLC13A5	SID134312443	no change	no change	-0.79	2.82
SPOUT1	SID134315287	no change	no change	2.25	-0.56
